PubChem BioAssay AID1159578 | Peter MacCallum Cancer Centre, 2015

Assay: 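siRNA pools altering how lymphatic endothelial cells close a scratch wound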 (primary screen)
System: human lymphatic endothelial cells
Reagent: siRNA pool against human genes, 40 nM
Duration: 48 h after transfection
Read-out: 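High-content imaging of dye-stained cells in a scratch assay measures filled wound area and nuclei per well; duplicate means given as ratio to mock and robust z-score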
Scale: migration robust z-score: higher = faster migration into the scratch; migration relative to mock: higher = more scratch area covered than mock; nuclei per well: higher = more cells in the well
Hit rule: 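Migration changed when robust z exceeds 2 or falls below -2 and mean nuclei number is at least 3300; otherwise not called changed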
Calls: active = migration changed; inactive = no migration change, or too few cells
Shown is one part, drawn at random, of about 18,000 deposited reagents. Of all reagents, about 1,030 (5.7%) are marked active. 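Inactive calls also include pools with fewer than 3300 nuclei, whose migration was not assessed.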 Raw values vary from plate to plate and are shown uncorrected.

Gene | migration robust z-score | migration class with cell-count check | migration relative to mock | nuclei per well, duplicate mean | call
HOXD8 | -0.73 | migration z between -2 and 2; enough cells | 0.66 | 7227 | inactive
ADAMTSL2 | -0.8 | migration z between -2 and 2; enough cells | 0.68 | 5062 | inactive
DYNLRB2 | -0.04 | migration z between -2 and 2; enough cells | 0.88 | 5971 | inactive
ADHFE1 | 0.73 | migration z between -2 and 2; enough cells | 0.94 | 5466 | inactive
GP5 | -0.5 | migration z between -2 and 2; enough cells | 0.76 | 5535 | inactive
CD48 | 1.85 | migration z between -2 and 2; enough cells | 1.36 | 6608 | inactive
NOX5 | -0.22 | migration z between -2 and 2; enough cells | 0.82 | 5224 | inactive
DCXR | -0.16 | migration z between -2 and 2; enough cells | 0.78 | 5278 | inactive
FBXW4 | 0.73 | migration z between -2 and 2; enough cells | 0.95 | 4943 | inactive
STS | -0.72 | migration z between -2 and 2; enough cells | 0.66 | 5070 | inactive
SLC7A13 | 1.92 | migration z between -2 and 2; enough cells | 1.17 | 6164 | inactive
NOXRED1 | 1.08 | migration z between -2 and 2; enough cells | 1.17 | 6132 | inactive
PLA2G4C | -0.83 | migration z between -2 and 2; enough cells | 0.64 | 5422 | inactive
TRPM5 | -0.44 | migration z between -2 and 2; enough cells | 0.72 | 4565 | inactive
MAPDA | 0.2 | migration z between -2 and 2; enough cells | 0.94 | 7214 | inactive
WNT8A | -0.21 | migration z between -2 and 2; enough cells | 0.83 | 5432 | inactive
HNRNPUL1 | -1.5 | migration z between -2 and 2; enough cells | 0.5 | 5322 | inactive
DYNLL1 | 0.91 | migration z between -2 and 2; enough cells | 0.98 | 5543 | inactive
SURF1 | -0.2 | migration z between -2 and 2; enough cells | 0.83 | 6798 | inactive
GRB14 | -0.3 | migration z between -2 and 2; enough cells | 0.8 | 5314 | inactive
TCP10L3 | 0.4 | migration z between -2 and 2; enough cells | 0.99 | 6102 | inactive
H4C13 | 0.3 | migration z between -2 and 2; enough cells | 0.96 | 6330 | inactive
TULP1 | 0.66 | migration z between -2 and 2; enough cells | 1.06 | 5570 | inactive
ARSI | 0.1 | migration z between -2 and 2; enough cells | 0.82 | 5210 | inactive
OR56A1 | -2.15 | migration z below -2; enough cells | 0.34 | 4056 | active
ERLIN2 | 0.82 | migration z between -2 and 2; enough cells | 1.1 | 5220 | inactive
STAG2 | 1.75 | migration z between -2 and 2; enough cells | 1.34 | 5868 | inactive
SOX13 | 1.42 | migration z between -2 and 2; enough cells | 1.25 | 5654 | inactive
HP1BP3 | 1.4 | migration z between -2 and 2; enough cells | 1.25 | 5878 | inactive
KIAA1328 | -0.9 | migration z between -2 and 2; enough cells | 0.65 | 5800 | inactive
ADK | -0.96 | migration z between -2 and 2; enough cells | 0.62 | 4393 | inactive
AVEN | 0.24 | migration z between -2 and 2; enough cells | 0.85 | 6020 | inactive
PCBP3 | 1.74 | migration z between -2 and 2; enough cells | 1.34 | 5199 | inactive
CITED4 | 1.12 | migration z between -2 and 2; enough cells | 1.02 | 5291 | inactive
TAFA2 | 1.45 | migration z between -2 and 2; enough cells | 1.26 | 6100 | inactive
SLC5A12 | -0.08 | migration z between -2 and 2; enough cells | 0.79 | 5274 | inactive
CALB1 | 0.3 | migration z between -2 and 2; enough cells | 0.97 | 5608 | inactive
ZNF214 | 0.28 | migration z between -2 and 2; enough cells | 0.96 | 7365 | inactive
RPL6 | -0.29 | migration z between -2 and 2; enough cells | 0.81 | 4249 | inactive

Individual results from above:
WNT8A, migration relative to mock: 0.83
Under “migration robust z-score”, AVEN reads 0.24
FBXW4, nuclei per well, duplicate mean → 4943
Result of MAPDA under “migration class with cell-count check”: migration z between -2 and 2; enough cells
